Source: PMC12485380
No constants are given. Whether binding was seen depends on the method and setting. Binding seen in cells or lysates may run through a third protein. Some binding calls cover weakened binding; strength is not graded here.

Protein sequences, listed by entry. Tags and fused reporters are not part of them.
UniProt P05556: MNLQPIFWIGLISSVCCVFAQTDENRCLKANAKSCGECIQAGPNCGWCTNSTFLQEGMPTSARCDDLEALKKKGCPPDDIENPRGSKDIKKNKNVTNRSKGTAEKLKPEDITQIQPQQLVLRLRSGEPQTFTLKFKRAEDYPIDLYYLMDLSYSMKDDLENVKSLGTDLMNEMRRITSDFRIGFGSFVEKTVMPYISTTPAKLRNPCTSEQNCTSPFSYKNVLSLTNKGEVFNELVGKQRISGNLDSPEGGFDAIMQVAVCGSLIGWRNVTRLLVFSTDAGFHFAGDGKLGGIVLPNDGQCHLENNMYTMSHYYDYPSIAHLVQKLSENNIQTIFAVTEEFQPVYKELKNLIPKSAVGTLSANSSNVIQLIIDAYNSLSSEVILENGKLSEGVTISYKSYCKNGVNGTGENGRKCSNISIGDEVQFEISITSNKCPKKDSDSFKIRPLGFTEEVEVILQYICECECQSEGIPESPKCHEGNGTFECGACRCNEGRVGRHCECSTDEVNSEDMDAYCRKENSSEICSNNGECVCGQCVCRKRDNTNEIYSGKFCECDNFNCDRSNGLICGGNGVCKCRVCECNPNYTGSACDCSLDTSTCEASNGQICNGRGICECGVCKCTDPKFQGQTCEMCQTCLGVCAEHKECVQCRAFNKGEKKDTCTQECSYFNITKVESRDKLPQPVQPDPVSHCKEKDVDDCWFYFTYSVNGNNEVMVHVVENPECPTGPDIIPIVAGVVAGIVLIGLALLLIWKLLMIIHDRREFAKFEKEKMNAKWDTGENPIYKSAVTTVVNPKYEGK
UniProt Q12809: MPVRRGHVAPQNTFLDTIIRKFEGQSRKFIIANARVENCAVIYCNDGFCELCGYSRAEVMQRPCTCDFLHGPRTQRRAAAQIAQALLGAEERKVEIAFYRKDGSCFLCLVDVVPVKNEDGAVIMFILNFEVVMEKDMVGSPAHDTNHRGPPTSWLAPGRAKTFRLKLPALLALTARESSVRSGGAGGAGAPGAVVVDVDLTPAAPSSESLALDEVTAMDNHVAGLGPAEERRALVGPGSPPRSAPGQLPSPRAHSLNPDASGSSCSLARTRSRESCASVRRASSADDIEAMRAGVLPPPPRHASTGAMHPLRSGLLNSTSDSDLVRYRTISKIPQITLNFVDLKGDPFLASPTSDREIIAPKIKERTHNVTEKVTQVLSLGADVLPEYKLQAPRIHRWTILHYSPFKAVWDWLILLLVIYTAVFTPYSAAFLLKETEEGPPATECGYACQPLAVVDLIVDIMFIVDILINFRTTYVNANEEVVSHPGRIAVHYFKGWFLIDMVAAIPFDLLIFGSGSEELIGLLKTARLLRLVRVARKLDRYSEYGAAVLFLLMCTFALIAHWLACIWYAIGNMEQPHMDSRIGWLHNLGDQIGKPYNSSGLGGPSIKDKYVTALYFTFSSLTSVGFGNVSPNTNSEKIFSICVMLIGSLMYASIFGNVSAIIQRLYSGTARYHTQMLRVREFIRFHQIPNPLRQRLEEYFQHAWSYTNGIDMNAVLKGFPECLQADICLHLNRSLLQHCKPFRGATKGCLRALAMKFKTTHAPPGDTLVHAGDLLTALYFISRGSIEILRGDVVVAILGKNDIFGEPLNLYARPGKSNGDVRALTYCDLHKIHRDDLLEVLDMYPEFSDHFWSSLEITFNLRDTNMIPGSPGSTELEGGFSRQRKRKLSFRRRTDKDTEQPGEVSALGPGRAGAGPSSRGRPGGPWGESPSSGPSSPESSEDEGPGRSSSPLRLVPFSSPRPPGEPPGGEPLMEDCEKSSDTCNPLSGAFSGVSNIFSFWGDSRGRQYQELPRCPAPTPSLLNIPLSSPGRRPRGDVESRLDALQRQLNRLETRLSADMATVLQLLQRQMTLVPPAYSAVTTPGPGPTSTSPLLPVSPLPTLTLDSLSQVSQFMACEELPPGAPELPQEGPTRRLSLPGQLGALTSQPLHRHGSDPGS

Molecular target: β1 integrin (endogenous) (human (endogenous in HEK293-derived, MCF10A, MCF 7, MDA-MB-231, U2932 cells)) (UniProt P05556)
Assay: co-IP; 1.5 mg of NP-40 lysate precleared with Protein A/G beads; β1 integrin immunoprecipitated with the TS2/16 antibody; hERG1 detected by Western blot

Substance | binding
hERG1 stably transfected in HEK293 cells (HEK-hERG1) (from UniProt Q12809 1-1159) | binds
hERG1 (endogenous) (from UniProt Q12809 1-1159) | binds
